Measured values taken from PMC7819943, “Rice protein-binding microarrays: a tool to detect cis-acting elements near promoter regions in rice”.
The list shows a part of the results.

The chains behind the UniProt entries cited, without tags or fusion partners.
UniProt Q0JBA9, entry or part of it: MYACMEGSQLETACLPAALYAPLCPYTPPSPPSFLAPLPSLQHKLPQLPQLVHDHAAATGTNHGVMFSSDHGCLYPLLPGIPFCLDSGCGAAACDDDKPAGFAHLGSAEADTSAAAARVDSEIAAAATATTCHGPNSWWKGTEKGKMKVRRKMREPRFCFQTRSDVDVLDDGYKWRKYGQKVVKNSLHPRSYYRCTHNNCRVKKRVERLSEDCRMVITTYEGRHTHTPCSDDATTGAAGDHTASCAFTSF

Target: OsWRKY34 (Oryza sativa, UniProt Q0JBA9 1-250)
Test: protein-binding microarray (RPBM); PBS, 2% BSA, 51.3 ng/ul salmon testes DNA, 50 uM zinc acetate, 200 nM TF, 25 C, 1 h; high values mean tight binding
Conditions: protein: recombinant; tags: N-terminal polyhistidine and DsRed monomer fusion (pET32a); label: CyDye5-dUTP incorporated in the synthesized complementary strand; 3' TTTTT single-stranded linker to array surface; dsDNA, one strand shown
In short: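 Per-feature fluorescence intensity (arbitrary units), read on an Axon 4000B scanner, is the binding signal. Transcription factors carrying an N-terminal polyhistidine tag and DsRed fusion were expressed in E. coli BL21-CodonPlus and purified on Ni–NTA. A custom Agilent array, made double-stranded by primer extension with Cy5-dUTP and blocked with 2% BSA, was incubated with 200 nM protein in PBS, 2% BSA, salmon testes DNA and 50 µM zinc acetate at 25 °C for 1 h and then washed.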

Sequence	binding signal
GCTTCCTGGCGTGAATTCCGTGTACTTATTTGTTATAATTCGGAGTCACCTAGTGCAG	8950 fluorescence intensity (a.u.)
CCCAATCCATCGCGCCCGCGCTCCGCTCCGCTGCCTATAACGGAGTCACCTAGTGCAG	11100 fluorescence intensity (a.u.)
TTAACTTTTGTCATAACGTTTGACTATCCGTCTTGCTCAACGGAGTCACCTAGTGCAG	8530 fluorescence intensity (a.u.)
ACCGTGTGGGTATGGTGTGCGTGTGTAGTGGTGTTTGTGCCGGAGTCACCTAGTGCAG	9600 fluorescence intensity (a.u.)
CATCTGTTTGGTCCTGTAATGTTTTGTTAGTTGTCTACACCGGAGTCACCTAGTGCAG	8180 fluorescence intensity (a.u.)
AACACCAATTCCTTATATAGTACATTTCATCATCTTCGATCGGAGTCACCTAGTGCAG	10400 fluorescence intensity (a.u.)
ATTAAGTTTCTTTTTATTTATTGGTGTGCATGTCTTATCTCGGAGTCACCTAGTGCAG	8840 fluorescence intensity (a.u.)
CGTTGCTCCGGCGCGCCATGTTCGAGCTGCTCCTGTACATCGGAGTCACCTAGTGCAG	8320 fluorescence intensity (a.u.)
GAGTGTCCCTTGTTGCTTTCCATCCCTAACTACTAGAGCTCGGAGTCACCTAGTGCAG	10600 fluorescence intensity (a.u.)
GGATGAGGAGGAGGGTGTGGAGGAGGAGGAGGAGGAGGTGCGGAGTCACCTAGTGCAG	11500 fluorescence intensity (a.u.)
GTGTTTCTTAATTGTTTTTTGCTTTTTATTATATCTATCACGGAGTCACCTAGTGCAG	13300 fluorescence intensity (a.u.)
GCACATGTTGTTGTCGCTTGAAAGCTGCAAATCTCCAAATCGGAGTCACCTAGTGCAG	10000 fluorescence intensity (a.u.)
TGTGGATCTTCTTGGTTTGGAGTTCCCTAGCGTGCGTCCGCGGAGTCACCTAGTGCAG	8830 fluorescence intensity (a.u.)
CATGCACACACTACAGTACTACACTCTCTTCTCTTCTAGACGGAGTCACCTAGTGCAG	10600 fluorescence intensity (a.u.)
GCCATCGACTATTCATTCGTCTTCATCACCTGTTGCTTGACGGAGTCACCTAGTGCAG	10400 fluorescence intensity (a.u.)
GATATGTCTATCCCGTTGCAATGGGATCTCGTTTTGTAGCCGGAGTCACCTAGTGCAG	9040 fluorescence intensity (a.u.)
TTTCTAACACCCATCCATGCGCACAGATAGACCACCATCGCGGAGTCACCTAGTGCAG	8540 fluorescence intensity (a.u.)
GCACACACAATCCACTCACTCCGTCTCCATTTTAAAATATCGGAGTCACCTAGTGCAG	9440 fluorescence intensity (a.u.)
TTTGTTGTGGCACCACATTGGCTATGTCCCTTTTGCTTATCGGAGTCACCTAGTGCAG	10200 fluorescence intensity (a.u.)
GTCTCTCTCACCGTCTCCGTGCTCCTCCGCCGCCCAAGGGCGGAGTCACCTAGTGCAG	12900 fluorescence intensity (a.u.)
TTTCTCTCTCCCACTTCACCTCGCGATCTCTCTCTCTCTCCGGAGTCACCTAGTGCAG	10600 fluorescence intensity (a.u.)

Sequence	binding signal
TCTGCCTCCTTCTCGCGCAGATCCGCCATCGTCGGCGACGCGGAGTCACCTAGTGCAG	8740 fluorescence intensity (a.u.)
ATAGTTTGGTCAATGTTTATGTGGTTTTGTGAAATTTACTCGGAGTCACCTAGTGCAG	9860 fluorescence intensity (a.u.)
ACTGGCGCGGTTTTTTTTCGGGTTTCCCTCGTTTTTTTTCCGGAGTCACCTAGTGCAG	8630 fluorescence intensity (a.u.)
ACCTCATAAGCCTCTCTACTTAAGGACAACGCCGCCACCACGGAGTCACCTAGTGCAG	8460 fluorescence intensity (a.u.)
GCGACACGATCTCCAAAACATAACTTTGATTTCTTGTTTCCGGAGTCACCTAGTGCAG	10800 fluorescence intensity (a.u.)
GTAACCGGTAGCGTTCATACCCATTTTGATACCTATTCGTCGGAGTCACCTAGTGCAG	9130 fluorescence intensity (a.u.)
AACCCATTTCCCATCTCTCTCATCTCCTCTCTCATCCACTCGGAGTCACCTAGTGCAG	8440 fluorescence intensity (a.u.)
TTTCTTCTTCGTCGTCTCGGTTCACTCCTCCGTTCGATCGCGGAGTCACCTAGTGCAG	10300 fluorescence intensity (a.u.)
GCACGTTACAACTTTCGCTTCTTAATTGTTGAACCGATCCCGGAGTCACCTAGTGCAG	10100 fluorescence intensity (a.u.)
GTCAGTCGTCACCACTGCCGCTCTCCTCGGGTTCGACTCTCGGAGTCACCTAGTGCAG	8030 fluorescence intensity (a.u.)
AATCCTTTGTTTTACACTTACATTCCTATCAAAATCCTACCGGAGTCACCTAGTGCAG	9730 fluorescence intensity (a.u.)
GGTTTGGTTTTGTTTAGTGGGTTAGAAGCCAATGAGAGCACGGAGTCACCTAGTGCAG	10300 fluorescence intensity (a.u.)
TGTGACTCTTGTCTTTTTGTCTCCGTATACATACATCTCCCGGAGTCACCTAGTGCAG	11000 fluorescence intensity (a.u.)
GGGTATATACCGTGACCCTGATCGCCACACCGACCGGATACGGAGTCACCTAGTGCAG	13600 fluorescence intensity (a.u.)
CTCCGCCTCCTCACTCCAATTCCATTCGCCTTCCGCCACCCGGAGTCACCTAGTGCAG	11500 fluorescence intensity (a.u.)
CTCTCCTCTCATCTCATCTCATCTCCAAGGCTGGTCTTTACGGAGTCACCTAGTGCAG	8320 fluorescence intensity (a.u.)
CCGCTGTGTGCATATACTAGACAAGCATATTACTCTATCCCGGAGTCACCTAGTGCAG	9020 fluorescence intensity (a.u.)
TGGCGGCTCGGTGGCGGAGCTCCGGTGTGGGGTGGTGTGGCGGAGTCACCTAGTGCAG	8140 fluorescence intensity (a.u.)
TAGGCTGATGGGTCTTCATGCTTCGGTTCATCTTCGTCTCCGGAGTCACCTAGTGCAG	10200 fluorescence intensity (a.u.)
GGGTTTCCTAATGCATCAATGTTCTTTTTTTAACTCGAACCGGAGTCACCTAGTGCAG	9970 fluorescence intensity (a.u.)
TTGTGGGAGGAGGGGATGGAATGATGATGACTCTGTTTTTCGGAGTCACCTAGTGCAG	8200 fluorescence intensity (a.u.)

Copied from the list.
binding signal with GCACGTTACAACTTTCGCTTCTTAATTGTTGAACCGATCCCGGAGTCACCTAGTGCAG is entered as 10100 fluorescence intensity (a.u.)
binding signal with CCGCTGTGTGCATATACTAGACAAGCATATTACTCTATCCCGGAGTCACCTAGTGCAG is entered as 9020 fluorescence intensity (a.u.)
binding signal with TGGCGGCTCGGTGGCGGAGCTCCGGTGTGGGGTGGTGTGGCGGAGTCACCTAGTGCAG is entered as 8140 fluorescence intensity (a.u.)
